System: IL-1β mRNA expression
Test: IL-1β mRNA expression (RTqPCR) in LPS-stimulated human articular chondrocytes; Chou-Talalay median-effect and combination index analysis
Assay type: cell-based
Conditions: LPS 2 µg/ml, 4 h
Protocol: Human articular chondrocytes (ScienCell, CA, USA) were cultured in the specific Chondrocyte Medium (Cat. 4651; ScienCell, CA, USA) supplemented with 1% antibiotic mixture, in 5% CO2 humidified incubator at 37°C. The medium was renewed every 2 days and confluent chondrocytes were trypsinized, subdivided, and re-plated. In these experiments chondrocytes from passage 3 to 7 were used. Chondrocytes were cultured in six well culture plates at a density of 2.5 × 10^5 cells/well. Sixteen hours after seeding, a set of plates were treated with LPS (2 µg/ml; Escherichia coli serotype 055:B5; […] Total RNA was isolated from human chondrocytes for RTqPCR analysis using Trizol Reagent Kit (Life Technologies, Monza, Italy). […] RTqPCR was performed on both targets and endogenous control using SYBR Premix DimerEraser (Takara, Japan) and QuantStudio 6 Flex Real-Time PCR System (Applied Biosystems, CA, USA). The amplified PCR products were quantified by measuring the calculated cycle thresholds (CT) of targets and β-actin mRNA. The amounts of specific mRNA in samples were calculated using the 2^-ΔΔCT method. The mean value of investigated mRNA levels in LPS or IL-1β-stimulated chondrocytes was chosen as the calibrator, and the results are expressed as % of reduction compared to LPS or IL-1β controls. The IC50 value was calculated by fitting the progress curves to the four-parameter IC50 equation using GraphPad prism software version 5.03 (Graphpad software, CA, USA). Chou and Talalay multiple drug effect analysis was performed and it is based on the median-effect principle ([Chou and Talalay, 1984]; [Chou, 2006]). The Median Effect Equation states that fa/fu = (D/Dm) m, where D is the dose, fa and fu are the affected and the unaffected fractions, respectively, of IL-1β mRNA expression levels, by the dose D; Dm is the dose required to produce the median effect (i.e., IC50), and m is the Hill-type coefficient signifying the sigmoidicity of the dose–effect curve. […] The CI was calculated as: CI=[(D)1/(D50)1]+[(D) 2/(D50)2 […] The CI index was calculated using Grafit software.

[1] = curcumin/β-caryophyllene experiment

For `COc1cc(/C=C/C(=O)CC(=O)/C=C/c2ccc(O)c(OC)c2)ccc1O` [curcumin], the “m, Hill-type coefficient of median effect plot” value (from here on “m, Hill-type coefficient”) (curcumin/flavocoxid experiment) was 1.835 and the “m, Hill-type coefficient” value [1] was 1.38.
With `C=C1CC/C=C(\C)CC[C@@H]2[C@@H]1CC2(C)C` [β-caryophyllene] the “m, Hill-type coefficient” value [1] was 0.88.
